Experimental data published in PMC8536713.
Results are given in words; binding and its absence hold for the method and conditions named. In cells and extracts the contact can be indirect. A yes stands for co-enrichment or nearness to the bait. Other partners may have been found.

Sequences of proteins named here, by UniProt entry; tags and fusion partners are left off. A change or cut given only in a name is not applied to a line headed by its entry.
UniProt P0CX41: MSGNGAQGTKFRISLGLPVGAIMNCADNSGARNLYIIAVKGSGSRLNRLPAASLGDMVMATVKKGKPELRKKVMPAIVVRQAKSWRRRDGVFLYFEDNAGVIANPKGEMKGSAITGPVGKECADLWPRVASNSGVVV
UniProt P53131: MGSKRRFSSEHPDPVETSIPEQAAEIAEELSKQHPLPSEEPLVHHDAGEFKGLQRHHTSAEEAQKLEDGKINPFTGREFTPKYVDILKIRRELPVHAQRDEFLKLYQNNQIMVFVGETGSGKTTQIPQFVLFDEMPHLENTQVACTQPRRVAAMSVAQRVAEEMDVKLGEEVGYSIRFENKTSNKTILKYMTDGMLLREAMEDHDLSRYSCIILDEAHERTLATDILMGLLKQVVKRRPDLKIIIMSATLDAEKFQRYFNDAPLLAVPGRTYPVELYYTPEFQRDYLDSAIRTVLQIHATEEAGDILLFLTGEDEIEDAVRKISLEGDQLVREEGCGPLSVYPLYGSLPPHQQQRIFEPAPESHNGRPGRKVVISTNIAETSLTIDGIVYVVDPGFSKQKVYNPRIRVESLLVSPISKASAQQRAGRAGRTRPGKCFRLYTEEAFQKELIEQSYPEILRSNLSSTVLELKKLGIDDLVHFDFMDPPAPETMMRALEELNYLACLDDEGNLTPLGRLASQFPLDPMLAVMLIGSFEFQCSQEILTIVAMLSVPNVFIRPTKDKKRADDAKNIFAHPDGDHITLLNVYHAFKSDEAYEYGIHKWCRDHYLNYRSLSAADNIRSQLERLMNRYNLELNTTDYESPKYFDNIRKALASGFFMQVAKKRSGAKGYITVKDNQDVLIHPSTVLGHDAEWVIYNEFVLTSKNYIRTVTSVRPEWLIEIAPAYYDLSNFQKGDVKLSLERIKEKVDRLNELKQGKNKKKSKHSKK
UniProt Q02753: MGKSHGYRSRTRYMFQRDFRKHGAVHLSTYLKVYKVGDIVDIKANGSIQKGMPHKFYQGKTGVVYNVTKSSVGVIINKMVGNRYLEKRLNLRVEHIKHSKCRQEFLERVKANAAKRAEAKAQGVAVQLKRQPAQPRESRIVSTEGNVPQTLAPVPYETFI
UniProt P05743: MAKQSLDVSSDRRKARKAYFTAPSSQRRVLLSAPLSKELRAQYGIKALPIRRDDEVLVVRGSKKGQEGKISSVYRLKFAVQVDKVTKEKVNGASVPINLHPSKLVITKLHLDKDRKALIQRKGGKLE
UniProt Q05022: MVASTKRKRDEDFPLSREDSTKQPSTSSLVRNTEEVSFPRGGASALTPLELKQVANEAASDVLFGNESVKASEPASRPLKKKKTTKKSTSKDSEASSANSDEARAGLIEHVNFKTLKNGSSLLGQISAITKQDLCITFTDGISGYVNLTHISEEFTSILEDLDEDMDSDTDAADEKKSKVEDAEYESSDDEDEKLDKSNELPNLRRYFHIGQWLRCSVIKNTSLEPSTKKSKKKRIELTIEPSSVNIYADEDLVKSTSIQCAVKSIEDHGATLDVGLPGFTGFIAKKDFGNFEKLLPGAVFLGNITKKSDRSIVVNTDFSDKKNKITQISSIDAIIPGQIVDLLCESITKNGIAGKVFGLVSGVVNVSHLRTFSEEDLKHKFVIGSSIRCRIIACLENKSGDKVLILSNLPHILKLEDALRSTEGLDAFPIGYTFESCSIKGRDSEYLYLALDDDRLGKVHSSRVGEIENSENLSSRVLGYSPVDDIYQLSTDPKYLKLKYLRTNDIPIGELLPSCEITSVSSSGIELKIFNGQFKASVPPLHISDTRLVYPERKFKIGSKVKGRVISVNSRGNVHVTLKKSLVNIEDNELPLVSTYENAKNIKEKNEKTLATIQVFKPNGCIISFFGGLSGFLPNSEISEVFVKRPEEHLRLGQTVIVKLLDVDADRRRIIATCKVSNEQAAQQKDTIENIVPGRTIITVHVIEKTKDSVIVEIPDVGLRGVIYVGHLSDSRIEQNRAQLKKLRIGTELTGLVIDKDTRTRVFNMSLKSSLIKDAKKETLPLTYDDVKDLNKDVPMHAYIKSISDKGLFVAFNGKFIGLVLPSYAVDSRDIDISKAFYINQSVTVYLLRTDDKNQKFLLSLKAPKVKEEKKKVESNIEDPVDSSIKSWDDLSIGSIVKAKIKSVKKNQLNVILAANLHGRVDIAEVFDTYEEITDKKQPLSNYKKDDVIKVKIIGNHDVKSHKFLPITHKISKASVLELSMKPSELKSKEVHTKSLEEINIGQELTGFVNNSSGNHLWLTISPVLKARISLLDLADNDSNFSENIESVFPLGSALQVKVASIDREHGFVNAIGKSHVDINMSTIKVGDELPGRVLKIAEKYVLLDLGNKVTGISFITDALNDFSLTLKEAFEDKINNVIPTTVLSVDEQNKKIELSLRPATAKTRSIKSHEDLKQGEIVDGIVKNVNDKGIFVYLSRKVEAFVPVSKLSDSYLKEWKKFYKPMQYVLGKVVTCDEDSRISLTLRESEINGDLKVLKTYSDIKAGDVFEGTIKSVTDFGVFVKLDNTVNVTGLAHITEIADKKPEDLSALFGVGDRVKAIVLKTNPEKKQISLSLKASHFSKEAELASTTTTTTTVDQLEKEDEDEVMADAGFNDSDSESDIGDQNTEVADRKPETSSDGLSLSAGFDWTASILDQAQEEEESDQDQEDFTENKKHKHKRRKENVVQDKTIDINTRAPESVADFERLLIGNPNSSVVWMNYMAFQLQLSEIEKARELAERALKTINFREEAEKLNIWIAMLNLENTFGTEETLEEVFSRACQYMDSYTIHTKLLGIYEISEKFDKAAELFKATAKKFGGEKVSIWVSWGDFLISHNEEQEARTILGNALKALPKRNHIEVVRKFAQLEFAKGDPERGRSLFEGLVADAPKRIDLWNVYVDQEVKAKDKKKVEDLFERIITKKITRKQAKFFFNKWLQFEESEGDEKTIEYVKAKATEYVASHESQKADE
UniProt P28007: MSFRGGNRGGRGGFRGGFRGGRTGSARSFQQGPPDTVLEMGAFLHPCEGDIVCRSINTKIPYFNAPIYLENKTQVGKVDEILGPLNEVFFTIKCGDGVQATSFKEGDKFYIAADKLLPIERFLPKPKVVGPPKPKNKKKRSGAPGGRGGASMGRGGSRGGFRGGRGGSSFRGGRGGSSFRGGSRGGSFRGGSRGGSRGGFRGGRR
UniProt P20447: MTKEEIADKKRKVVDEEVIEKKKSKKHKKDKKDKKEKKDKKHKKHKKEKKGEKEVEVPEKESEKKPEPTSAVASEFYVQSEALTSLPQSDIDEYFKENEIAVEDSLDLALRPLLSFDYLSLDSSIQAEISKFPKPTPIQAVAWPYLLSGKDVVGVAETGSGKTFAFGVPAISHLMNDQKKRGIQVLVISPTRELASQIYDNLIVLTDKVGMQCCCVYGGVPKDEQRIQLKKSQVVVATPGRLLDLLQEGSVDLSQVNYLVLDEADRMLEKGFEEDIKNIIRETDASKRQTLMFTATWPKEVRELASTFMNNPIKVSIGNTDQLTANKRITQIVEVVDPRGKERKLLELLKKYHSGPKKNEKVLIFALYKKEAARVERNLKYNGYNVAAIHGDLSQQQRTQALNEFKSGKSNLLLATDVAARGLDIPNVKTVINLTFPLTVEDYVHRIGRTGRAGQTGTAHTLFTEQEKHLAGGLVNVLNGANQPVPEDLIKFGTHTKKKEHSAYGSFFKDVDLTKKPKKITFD
UniProt P33322: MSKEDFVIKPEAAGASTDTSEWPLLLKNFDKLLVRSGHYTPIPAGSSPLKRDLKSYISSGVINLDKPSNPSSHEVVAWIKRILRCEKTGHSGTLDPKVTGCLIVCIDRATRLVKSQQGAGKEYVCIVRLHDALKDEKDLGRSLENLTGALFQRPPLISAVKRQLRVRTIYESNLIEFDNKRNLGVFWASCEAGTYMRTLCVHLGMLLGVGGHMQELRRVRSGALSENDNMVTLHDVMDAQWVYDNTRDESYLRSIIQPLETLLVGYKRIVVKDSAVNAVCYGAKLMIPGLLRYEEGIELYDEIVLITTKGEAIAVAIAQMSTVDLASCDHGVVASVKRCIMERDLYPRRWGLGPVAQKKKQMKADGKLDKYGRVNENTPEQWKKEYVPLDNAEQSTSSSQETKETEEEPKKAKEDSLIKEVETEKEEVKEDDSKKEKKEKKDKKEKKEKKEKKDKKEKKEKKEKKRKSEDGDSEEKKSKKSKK
UniProt P0C2H8: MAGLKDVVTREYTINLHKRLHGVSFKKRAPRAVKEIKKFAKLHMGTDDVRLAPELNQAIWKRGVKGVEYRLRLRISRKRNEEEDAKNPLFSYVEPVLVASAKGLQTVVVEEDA
UniProt P34241: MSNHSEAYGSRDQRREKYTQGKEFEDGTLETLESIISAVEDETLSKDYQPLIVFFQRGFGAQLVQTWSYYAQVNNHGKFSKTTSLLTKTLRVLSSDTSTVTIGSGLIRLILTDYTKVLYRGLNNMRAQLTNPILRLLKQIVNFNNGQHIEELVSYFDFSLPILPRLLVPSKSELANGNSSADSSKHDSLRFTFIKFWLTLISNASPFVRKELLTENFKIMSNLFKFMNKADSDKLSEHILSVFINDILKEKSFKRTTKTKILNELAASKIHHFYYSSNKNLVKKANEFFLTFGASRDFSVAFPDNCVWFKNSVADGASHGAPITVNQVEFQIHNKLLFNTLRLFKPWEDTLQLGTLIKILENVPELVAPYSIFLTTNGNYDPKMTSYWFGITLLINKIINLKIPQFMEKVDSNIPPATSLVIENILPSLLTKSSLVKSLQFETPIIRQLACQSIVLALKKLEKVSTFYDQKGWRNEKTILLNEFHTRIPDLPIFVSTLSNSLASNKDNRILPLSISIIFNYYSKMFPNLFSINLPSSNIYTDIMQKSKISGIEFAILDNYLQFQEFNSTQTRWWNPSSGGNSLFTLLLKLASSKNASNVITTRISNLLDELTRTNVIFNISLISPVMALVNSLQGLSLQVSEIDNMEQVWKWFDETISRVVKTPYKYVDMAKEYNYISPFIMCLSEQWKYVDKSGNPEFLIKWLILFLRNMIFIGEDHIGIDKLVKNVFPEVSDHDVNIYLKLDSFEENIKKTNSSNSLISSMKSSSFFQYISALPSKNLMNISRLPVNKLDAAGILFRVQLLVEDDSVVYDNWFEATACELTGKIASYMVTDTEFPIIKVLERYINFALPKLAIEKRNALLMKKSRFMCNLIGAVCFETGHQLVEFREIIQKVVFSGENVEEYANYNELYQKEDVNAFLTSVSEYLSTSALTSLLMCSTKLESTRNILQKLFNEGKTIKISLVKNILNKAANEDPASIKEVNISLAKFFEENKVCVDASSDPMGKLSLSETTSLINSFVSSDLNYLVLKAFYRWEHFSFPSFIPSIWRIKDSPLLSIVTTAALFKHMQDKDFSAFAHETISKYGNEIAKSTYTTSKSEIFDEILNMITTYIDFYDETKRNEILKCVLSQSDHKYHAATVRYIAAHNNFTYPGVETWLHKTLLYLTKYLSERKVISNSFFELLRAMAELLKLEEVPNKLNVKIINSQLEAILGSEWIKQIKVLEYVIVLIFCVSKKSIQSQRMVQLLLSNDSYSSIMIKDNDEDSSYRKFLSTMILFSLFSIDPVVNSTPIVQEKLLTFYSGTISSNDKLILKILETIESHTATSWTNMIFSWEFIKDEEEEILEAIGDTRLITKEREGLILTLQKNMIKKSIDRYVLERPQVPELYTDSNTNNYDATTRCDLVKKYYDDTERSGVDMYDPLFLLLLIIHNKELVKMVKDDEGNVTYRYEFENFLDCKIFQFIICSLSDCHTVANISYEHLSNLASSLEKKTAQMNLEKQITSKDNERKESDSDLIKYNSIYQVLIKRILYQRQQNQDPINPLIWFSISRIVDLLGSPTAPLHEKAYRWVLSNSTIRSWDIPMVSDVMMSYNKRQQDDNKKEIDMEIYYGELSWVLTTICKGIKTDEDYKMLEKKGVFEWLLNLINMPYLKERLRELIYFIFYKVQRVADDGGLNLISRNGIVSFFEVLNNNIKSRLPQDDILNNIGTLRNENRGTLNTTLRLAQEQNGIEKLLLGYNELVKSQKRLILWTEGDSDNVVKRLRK

T1: Nop2-TAP (S. cerevisiae) (UniProt P40991)
T1 sequence: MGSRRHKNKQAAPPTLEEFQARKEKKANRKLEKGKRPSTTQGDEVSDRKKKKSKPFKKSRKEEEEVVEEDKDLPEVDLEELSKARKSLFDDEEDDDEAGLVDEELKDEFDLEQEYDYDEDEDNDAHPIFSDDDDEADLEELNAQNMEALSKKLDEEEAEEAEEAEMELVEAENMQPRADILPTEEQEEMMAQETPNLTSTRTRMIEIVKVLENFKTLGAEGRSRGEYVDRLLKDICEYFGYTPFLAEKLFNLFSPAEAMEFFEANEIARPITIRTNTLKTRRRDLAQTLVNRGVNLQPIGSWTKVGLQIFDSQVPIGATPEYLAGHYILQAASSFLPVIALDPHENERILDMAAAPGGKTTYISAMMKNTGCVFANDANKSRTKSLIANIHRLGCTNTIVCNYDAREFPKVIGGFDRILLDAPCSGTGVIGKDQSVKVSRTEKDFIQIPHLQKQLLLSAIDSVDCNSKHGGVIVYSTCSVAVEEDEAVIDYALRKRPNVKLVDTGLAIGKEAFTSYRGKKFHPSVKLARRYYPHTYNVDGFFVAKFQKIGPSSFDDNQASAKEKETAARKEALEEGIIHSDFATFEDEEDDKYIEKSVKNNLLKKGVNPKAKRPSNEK


molecular target: T1, Nop2-TAP (S. cerevisiae); assay: affinity purification with mass spectrometry; Nop2-TAP particles isolated from whole-cell lysate of wild-type and Δdbp7 cells on IgG sepharose, eluted by overnight TEV cleavage; MS, two biological replicates

| binding | Molecule |
| --- | --- |
| binds | uL14 (from UniProt P0CX41 1-137) |
| binds | Prp43 (from UniProt P53131 1-767) (enzyme) |
| binds | eL21 (from UniProt Q02753) |

Further lines, the molecule ahead of its results:

| Molecule | binding |
| --- | --- |
| uL24 (from UniProt P05743) | binds |
| Rrp5 (from UniProt Q05022 1-1729) | binds |
| Gar1 (from UniProt P28007 1-205) | binds |
| Dbp3 (from UniProt P20447 1-523) (enzyme) | binds |
| Cbf5 (from UniProt P33322 1-483) | binds |
| eL31 (from UniProt P0C2H8) | binds |
| Npa1 (from UniProt P34241 1-1764) | binds |

molecular target: T1, Nop2-TAP (S. cerevisiae); assay: as above; remark: another data set of the same source

| binding | Molecule |
| --- | --- |
| binds | eL38 (protein, UniProt P49167 1-78) MAREITDIKQFLELTRRADVKTATVKINKKLNKAGKPFRQTKFKVRGSSSLYTLVINDAGKAKKLIQSLPPTLKVNRL |
| binds | Dbp6 (enzyme, UniProt P53734 1-629) MFASRFDPSQLTAPAASAPEGIVGTTPPAIVPLKRQATESDNEEYGSHQDSDESSNSSSEEDEDRMQVDYGASEEDSSEVEEEESKPSTHSTVLSRFKQTVSLQERLGASDIAESKEDEGIEDEAASTHQLKQIPQPEFVKNPMNLNTNSLQFKSTGWLNTEKIYYDNSLIKPFSDYANELEAKLLQNICKNFSTNTFPIQSIILDSILPVLNFTLNVSKRNFTRRIGDILVNAATGSGKTLAYSIPIVQTLFKRQINRLRCIIIVPTKLLINQVYTTLTKLTQGTSLIVSIAKLENSLKDEHKKLSNLEPDILITTPGRLVDHLNMKSINLKNLKFLIIDEADRLLNQSFQGWCPKLMSHLKTDKLDTLPGNVIKMIFSATLTTNTEKLNGLNLYKPKLFLKQTDKLYQLPNKLNEFNINIPTAKSVYKPLILLYSICQFMAHSPIAAKILIFVKSNESSIRLSKLLQLICESRSQSSVLKNLQNLAVSINSVNSNNSKAENKKIVANFSHHSESAGITILITTDIMSRGIDINDITQVINYDPPMSSQQYVHRVGRTARANELGSAYNLLVGRGERTFFDDLNKDLDRDGKSVQPLELDFTLLESDSELYTSSLESLKNYHNNTAQA |

The next lines start with the molecule.

| Molecule | binding |
| --- | --- |
| Rsa3 (protein, UniProt Q05942 1-220) MSAGDISAINIKSVKKNRRRKKRRTADVSSSDSSSSDPSSESEKEEIQNGAIEEHVGENGKSDHVFSKGNDEDKQEDIAIEVSDVELTDEESKDLKLNSKEVIDDLTKISLSKIPEPTKSQNKEGFMNASKIAENIKLAREEYNELAENFVPKGKDKTKLREEYLNLLFENYGDDINRLRAAPDFTNKSLSILADALQEGIGMFDIGELELVLKNKEMEN | binds |
| Nop4 (protein, UniProt P37838 1-685) MEETIENVEVPSSNVSKQNDDGLDMKTLFVRSIPQDVTDEQLADFFSNFAPIKHAVVVKDTNKRSRGFGFVSFAVEDDTKEALAKARKTKFNGHILRVDIAKRRDRSKKTSEVVEKSTPESSEKITGQNNEDEDDADGEDSMLKGKPKLIIRNMPWSCRDPVKLKKIFGRYGTVVEATIPRKRDGKLCGFAFVTMKKISNCRIALENTKDLKIDGRKVAVDFAVQKNRWEDYKKAQPEMNDKDDNESGNEDAEENHDDEEDENEEEDRQVDQASKNKESKRKAQNKREDFSVFVRNVPYDATEESLAPHFSKFGSVKYALPVIDKSTGLAKGTAFVAFKDQYTYNECIKNAPAAGSTSLLIGDDVMPEYVYEGRVLSITPTLVREDAGRMAEKNAAKRKEALGKAPGEKDRRNLYLLNEGRVVEGSKMADLLTNTDMEIREKSYKLRVEQLKKNPSLHLSMTRLAIRNLPRAMNDKALKALARKAVVEFATEVKNKERHPLSKEEIIRSTKEKYKFMGPDEIEAQKKKDKKSGVVKQAKVIMEVKGSTAGRSRGYGFVEFRDHKNALMGLRWLNCHAVTSDEILEGLNDDEKKQVDNDLGKGRRLCVEFAIENSNVVKRRREQLKQARTKRTRPDNEDTGDVGESENKKPKKEEATTPTNPDDKKMGDDIKRIIGFKRKRKHAKK | binds |
| Mak5 (enzyme, UniProt P38112 1-773) MGKKRAPQKGKTVTKPQEIIVDESKLNWKPVDIPDTLDDFGGFYGLEEIDGVDVKVVDGKVTFVTKKDSKVLKDSNKEKVGDDQESVENESGSDSESELLEFKNLDDIKEGELSAASYSSSDEDEQGNIESSKLTDPSEDVDEDVDEDVLKENVFNKDINIDDISPVNLPEWTNLAPLSMTILQSLQNLNFLRPTEIQKKSIPVIMQGVDVMGKASTGSGKTLAYGIPIVEKLISNFSQKNKKPISLIFTPTRELAHQVTDHLKKICEPVLAKSQYSILSLTGGLSIQKQQRLLKYDNSGQIVIATPGRFLELLEKDNTLIKRFSKVNTLILDEADRLLQDGHFDEFEKIIKHLLVERRKNRENSEGSSKIWQTLIFSATFSIDLFDKLSSSRQVKDRRFKNNEDELNAVIQHLMSKIHFNSKPVIIDTNPESKVSSQIKESLIECPPLERDLYCYYFLTMFPGTTLIFCNAIDSVKKLTVYLNNLGIPAFQIHSSMTQKNRLKSLERFKQQSAKQKTINHSNPDSVQLSTVLIASDVAARGLDIPGVQHVIHYHLPRSTDIYIHRSGRTARAGSEGVSAMICSPQESMGPLRKLRKTLATKNSVSTDLNSRSTNRKPIKWQNTVPLLPIETDILSQLRERSRLAGELADHEIASNSLRKDDNWLKKAADELGIDVDSDEDDISKSNSDTFLLKNKNKKMQKTINKDKVKAMRATLNELLSVPIRKDRRQKYLTGGLVNLADNLVKKRGHNSIIGHEKTNALETLKKKKKRNN | binds |
| Nop8 (protein, UniProt Q08287 1-484) MDSVIQKRIFVGNIFHNADDCYSELLDRFGKFGDCQDFQFEKHNHFAFIDIRFNDEADFNKLRKSFNNVKFKGNILKVDEAKPNWESTWAVQHAKDLKEDIILNAKMKKKNWQHYKKMENVAKSWKDHKEVIAGRMREAPRKRSQLRNITFRINVNGSLKVYKCYKTKLWGYERNKELNDLVYKFTNNFWKNGYNHIVDRLDYSRAVKTVRFKNGLKQLTVSKDENVCSGEMDSDENMSEEEKEKNNVILNDLLKDFDFDKPMTLNDSDEELLTEQRKGEEEEEEEEEKEVNAPEYENVNKTKDQSTLPQEKPEERKEQDEGDGQEDNEFIPTFTKEIGQGTISNTETLRNLFNPNEAEPVSQFKLIEDSDNDIDHAKDVDVNQLEEEVSKSSDTLGLTSAPVPHVSRDKDNKNFLFFPHLQSPFLVGQTQLSKVRAPGRETMLSNWDEEFWANRGNWTRDMRRKMKDALKHRKRKQSKSGLLL | binds |
| Dbp9 (enzyme, UniProt Q06218 1-594) MSYEKKSVEGAYIDDSTTFEAFHLDSRLLQAIKNIGFQYPTLIQSHAIPLALQQKRDIIAKAATGSGKTLAYLIPVIETILEYKKTIDNGEENGTLGIILVPTRELAQQVYNVLEKLVLYCSKDIRTLNISSDMSDSVLSTLLMDQPEIIVGTPGKLLDLLQTKINSISLNELKFLVVDEVDLVLTFGYQDDLNKIGEYLPLKKNLQTFLMSATLNDDIQALKQKFCRSPAILKFNDEEINKNQNKLLQYYVKVSEFDKFLLCYVIFKLNLIKGKTLIFVNNIDRGYRLKLVMEQFGIKSCILNSELPVNSRQHIVDQFNKNVYQLLIATDDTEYIKEEDDEIEEGHNTENQEEKSLEGEPENDKKPSKKKKVQVKKDKEYGVSRGVDFKNVACVLNFDLPTTAKSYVHRVGRTARGGKTGTAISFVVPLKEFGKHKPSMLQTAKKDERILSRIIKQQSKLGLELQPYKFDQKQVEAFRYRMEDGFRAVTQVAIREARVKELKQELLASEKLKRHFEENPKELQSLRHDKELHPARVQQHLKRVPDYLLPESARGNGTKVKFVPFHNAKKRHSHKKGRVSKPKNGKVDPLKNFK | binds |
| Nop12 (protein, UniProt Q08208 1-459) MSSAIDNLFGNIDEKKIESSVDKLFSSSCGPINKLEVKSKTRTVLPDSKKRERAAEADQEEKEASKPDVSDEQTEEVALPKVKKAKKSKRNDEDEDLEARYYAKLLNEEAEAEDDKPTVTKTDETSVPLTSAAKKVDFKEDELEKAERTVFIGNILSTVITSKKVYKEFKKLFGTNPIAETEESGNEKEEESSKKSDNNEFAIESIRFRSISFDEALPRKVAFVQQKFHKSRDTINAYIVYKNKSAVRKICSNLNAVVFQDHHLRVDSVAHPAPHDKKRSIFVGNLDFEEIEESLWKHFEPCGDIEYVRIIRDSKTNMGKGFAYVQFKDLQSVNKALLLNEKPMKSQKQEDENTKKPTKKARKLRVSRCKNMKKGTTIGTGLDRNGLTDSQRTRAGRAKKILGKADRATLGQEITIEGLRAKKGEGSTHLKKKKQRSATGRVTKRSIAFKKAQAEKSKK | binds |
